Assay [1] has as its target HER3 (human (endogenous in BT474 and MDA-MB-453)) (UniProt P21860). In words: co-IP; BT474 and MDA-MB-453 cells treated with 200 nM neratinib or DMSO for 24 h; 1% NP40 lysis buffer; cleared lysate incubated with HER3 (2F12), IgG or NMIIA antibody overnight at 4 C, Protein A magnetic beads; NMIIA and HER3 immunoblots.
The target in assay [2] is non-muscle myosin IIA (human (endogenous in BT474 and MDA-MB-453)) (UniProt P35579). Described as above.

By UniProt entry, the sequences of proteins in these tests, tags left out. Residues count along the entry.
UniProt P21860, residues 20-1342: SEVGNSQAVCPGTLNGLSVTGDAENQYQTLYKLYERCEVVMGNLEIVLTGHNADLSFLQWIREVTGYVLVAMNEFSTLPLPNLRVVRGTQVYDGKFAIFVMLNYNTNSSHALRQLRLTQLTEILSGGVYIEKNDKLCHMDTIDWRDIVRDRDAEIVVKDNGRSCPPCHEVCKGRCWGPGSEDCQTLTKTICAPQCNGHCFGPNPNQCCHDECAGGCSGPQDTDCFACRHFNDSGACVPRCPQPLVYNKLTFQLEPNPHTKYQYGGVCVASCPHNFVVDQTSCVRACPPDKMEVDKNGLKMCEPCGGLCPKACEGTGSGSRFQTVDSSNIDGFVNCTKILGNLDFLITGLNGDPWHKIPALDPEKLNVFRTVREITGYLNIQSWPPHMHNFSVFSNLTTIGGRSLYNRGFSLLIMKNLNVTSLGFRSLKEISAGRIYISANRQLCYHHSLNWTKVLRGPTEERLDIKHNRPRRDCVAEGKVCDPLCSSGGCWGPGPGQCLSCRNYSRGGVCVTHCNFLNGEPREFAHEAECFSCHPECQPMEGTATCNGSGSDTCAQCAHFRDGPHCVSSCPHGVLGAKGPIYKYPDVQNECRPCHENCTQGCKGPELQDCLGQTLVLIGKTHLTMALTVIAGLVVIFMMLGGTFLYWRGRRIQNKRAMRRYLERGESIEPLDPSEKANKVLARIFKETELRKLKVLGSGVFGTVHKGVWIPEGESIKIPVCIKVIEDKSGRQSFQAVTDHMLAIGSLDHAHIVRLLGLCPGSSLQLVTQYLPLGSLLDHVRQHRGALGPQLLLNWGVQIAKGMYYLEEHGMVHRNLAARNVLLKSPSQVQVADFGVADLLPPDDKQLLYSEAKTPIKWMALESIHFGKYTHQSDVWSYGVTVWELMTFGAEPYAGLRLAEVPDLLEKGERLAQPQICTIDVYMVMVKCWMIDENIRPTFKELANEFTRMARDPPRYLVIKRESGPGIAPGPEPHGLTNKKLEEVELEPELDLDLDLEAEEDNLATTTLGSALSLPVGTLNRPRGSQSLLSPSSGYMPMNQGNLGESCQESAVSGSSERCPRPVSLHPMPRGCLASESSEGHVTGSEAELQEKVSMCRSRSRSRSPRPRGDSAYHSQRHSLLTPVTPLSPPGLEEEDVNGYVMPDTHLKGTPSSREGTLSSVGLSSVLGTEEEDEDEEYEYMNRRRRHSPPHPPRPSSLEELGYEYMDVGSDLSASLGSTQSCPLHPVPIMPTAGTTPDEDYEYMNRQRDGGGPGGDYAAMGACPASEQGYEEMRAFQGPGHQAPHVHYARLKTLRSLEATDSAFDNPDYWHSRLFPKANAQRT
UniProt P35579: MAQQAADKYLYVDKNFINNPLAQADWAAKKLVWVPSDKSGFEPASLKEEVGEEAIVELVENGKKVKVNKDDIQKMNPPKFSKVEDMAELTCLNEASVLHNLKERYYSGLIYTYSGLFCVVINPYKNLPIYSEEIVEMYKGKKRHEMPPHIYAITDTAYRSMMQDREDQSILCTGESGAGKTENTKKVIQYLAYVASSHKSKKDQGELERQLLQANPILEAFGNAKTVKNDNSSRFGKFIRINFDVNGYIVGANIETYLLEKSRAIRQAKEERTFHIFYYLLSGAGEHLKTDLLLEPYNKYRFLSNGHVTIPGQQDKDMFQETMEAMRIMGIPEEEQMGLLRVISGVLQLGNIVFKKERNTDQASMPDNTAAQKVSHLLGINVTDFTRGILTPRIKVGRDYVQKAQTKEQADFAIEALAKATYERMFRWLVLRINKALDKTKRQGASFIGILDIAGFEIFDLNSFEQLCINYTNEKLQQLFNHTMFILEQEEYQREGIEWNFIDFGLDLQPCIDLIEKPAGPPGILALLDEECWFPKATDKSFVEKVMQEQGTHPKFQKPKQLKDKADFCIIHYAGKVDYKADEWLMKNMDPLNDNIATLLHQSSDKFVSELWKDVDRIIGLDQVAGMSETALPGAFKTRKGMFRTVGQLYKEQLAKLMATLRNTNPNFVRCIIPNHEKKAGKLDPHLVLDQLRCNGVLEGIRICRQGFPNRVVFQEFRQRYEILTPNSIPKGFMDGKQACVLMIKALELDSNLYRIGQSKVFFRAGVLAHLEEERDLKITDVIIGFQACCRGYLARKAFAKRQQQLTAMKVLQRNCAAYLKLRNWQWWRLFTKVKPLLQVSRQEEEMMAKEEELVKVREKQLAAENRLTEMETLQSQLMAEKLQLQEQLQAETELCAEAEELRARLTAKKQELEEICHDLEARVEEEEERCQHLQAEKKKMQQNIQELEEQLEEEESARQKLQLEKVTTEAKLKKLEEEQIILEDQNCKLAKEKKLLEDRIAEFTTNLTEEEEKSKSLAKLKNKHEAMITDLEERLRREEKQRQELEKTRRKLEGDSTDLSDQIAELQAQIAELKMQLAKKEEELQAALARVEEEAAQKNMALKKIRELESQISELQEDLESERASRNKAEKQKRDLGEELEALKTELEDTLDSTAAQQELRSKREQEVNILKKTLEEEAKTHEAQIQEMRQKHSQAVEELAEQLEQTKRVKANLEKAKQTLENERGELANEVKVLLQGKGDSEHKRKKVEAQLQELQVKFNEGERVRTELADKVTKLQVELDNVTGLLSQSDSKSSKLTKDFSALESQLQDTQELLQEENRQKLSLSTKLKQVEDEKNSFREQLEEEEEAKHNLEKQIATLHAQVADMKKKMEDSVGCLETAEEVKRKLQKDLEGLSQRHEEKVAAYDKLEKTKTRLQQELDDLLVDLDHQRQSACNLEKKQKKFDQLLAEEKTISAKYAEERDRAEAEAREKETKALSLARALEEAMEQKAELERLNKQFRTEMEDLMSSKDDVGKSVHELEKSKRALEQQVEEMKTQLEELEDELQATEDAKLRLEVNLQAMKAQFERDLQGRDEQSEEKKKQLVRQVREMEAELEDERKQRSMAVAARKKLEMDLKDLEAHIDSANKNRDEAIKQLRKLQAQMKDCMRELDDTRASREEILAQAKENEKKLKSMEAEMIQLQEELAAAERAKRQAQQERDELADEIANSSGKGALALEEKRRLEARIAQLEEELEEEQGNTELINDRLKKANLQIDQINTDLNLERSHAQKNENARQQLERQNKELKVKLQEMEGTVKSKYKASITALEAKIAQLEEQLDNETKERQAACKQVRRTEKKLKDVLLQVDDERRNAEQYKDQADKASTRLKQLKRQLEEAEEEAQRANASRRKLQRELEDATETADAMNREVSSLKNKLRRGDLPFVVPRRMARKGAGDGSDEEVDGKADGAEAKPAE

No constants are given. Whether binding was seen depends on the method and setting. In cells and extracts the contact can be indirect. Some binding calls cover weakened binding; strength is not graded here.

“non-muscle myosin IIA (from UniProt P35579 1-1960)”: in assay [1], the binding result is “binds”.

With “HER3 (from UniProt P21860 20-1342) (receptor)”, the binding entry in assay [2] was “binds”.

(Values after article PMC10194889.)
